Laboratory results reported in patent publication US8580516B2, “Methods and compositions for direct detection of DNA damage” (University of Chicago, priority 2008, dated 2013).

Tested on: HL60 and K562 myeloid cell lines
Experiment: Staining of fixed tissue culture cells treated with FeSO4/H2O2 (hydroxyl radicals)
Assay type: cell-based
Conditions: for binding after treatment with hydroxyl radicals: 100 μM FeSO4 and 100 μM H2O2, highest intensity in the nucleus; for background in control cells: fixed control cells

SMILES | binding after treatment with hydroxyl radicals | background in control cells
NOCC(=O)NNC(=O)CCCC[C@@H]1SC[C@@H]2NC(=O)N[C@@H]21 [ARP, N-(aminooxyacetyl)-N′-(D-biotinoyl) hydrazine] | enhanced binding | moderate background
NOCC(=O)NNC(=O)CSCC(=O)Nc1ccc2c(c1)C(=O)OC21c2ccc(O)cc2Oc2cc(O)ccc21 [FARP, 5-(((2-(carbohydrazino)-methyl)thio)acetyl)aminofluorescein, aminooxyacetyl hydrazide] | enhanced binding | moderate background
